This note sets out measurements from article PMC6506465.

In this experiment the target is untagged NEURL1 (overexpressed) (rat (by the plasmid's name rNEURL1-pcDNA3)). In words: co-IP; HEK293-FT cells expressing PDE9A-V5His with or without untagged NEURL1; precipitation with custom-raised polyclonal NEURL1 antibodies on Protein A sepharose; immunoblot with V5 antibody.

Results are given in words; binding and its absence hold for the method and conditions named. Binding seen in cells or lysates may run through a third protein. Binding calls can cover weak binding; strength is not graded here. Where a sequence is shown, tags or fusion partners need not be part of it.

B1: PDE9A-V5His (enzyme, UniProt Q8QZV1 1-534)
chain: MGAGSSSYRPKAIYLDIDGRIQKVVFSKYCNSSDIMDLFCIATGLPRNTTISLLTTDDAMVSIDPTMPANSERTPYKVRPVAVKQVSEREELVQGVLAQVAEQFSRAFKINELKAEVANHLAMLEKRVELEGLKVVEIEKCKSDIKKMREELAARNNRTNCPCKYSFLDNKKLTPRRDVPTYPKYLLSPETIEALRKPTFDVWLWEPNEMLSCLEHMYHDLGLVRDFSINPITLRRWLLCVHDNYRSNPFHNFRHCFCVTQMMYSMVWLCGLQEKFSQMDILVLMTAAICHDLDHPGYNNTYQINARTELAVRYNDISPLENHHCAIAFQILARPECNIFASVPPEGFRQIRQGMITLILATDMARHAEIMDSFKEKMENFDYSNEEHLTLLKMILIKCCDISNEVRPMEVAEPWVDCLLEEYFMQSDREKSEGLPVAPFMDRDKVTKATAQIGFIKFVLIPMFETVTKLFPIVEETMLRPLWESREHYEELKQLDDAMKELQKKTENLTSGATENAPEKTRDAKDNEDRSPPN
B1: the binding result is given as “binds”.
